Test results reported in PMC10298287.

T1: AtIDD10 (JACKDAW) (Arabidopsis) (UniProt Q700D2)
T1 sequence: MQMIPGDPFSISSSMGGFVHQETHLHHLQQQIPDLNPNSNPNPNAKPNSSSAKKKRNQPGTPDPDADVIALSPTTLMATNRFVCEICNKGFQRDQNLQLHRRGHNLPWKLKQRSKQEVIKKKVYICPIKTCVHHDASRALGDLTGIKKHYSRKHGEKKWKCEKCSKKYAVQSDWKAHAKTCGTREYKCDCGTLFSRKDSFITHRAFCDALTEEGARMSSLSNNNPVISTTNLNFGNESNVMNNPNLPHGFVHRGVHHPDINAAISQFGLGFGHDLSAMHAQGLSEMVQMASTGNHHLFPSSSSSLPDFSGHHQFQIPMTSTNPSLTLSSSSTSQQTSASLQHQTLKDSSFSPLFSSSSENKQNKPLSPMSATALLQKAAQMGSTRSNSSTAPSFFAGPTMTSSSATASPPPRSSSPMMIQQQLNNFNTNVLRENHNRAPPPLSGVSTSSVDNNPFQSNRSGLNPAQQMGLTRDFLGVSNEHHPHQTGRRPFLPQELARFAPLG

B1: AtSHR (protein, UniProt Q9SZF7 1-531)
chain: MDTLFRLVSLQQQQQSDSIITNQSSLSRTSTTTTGSPQTAYHYNFPQNDVVEECFNFFMDEEDLSSSSSHHNHHNHNNPNTYYSPFTTPTQYHPATSSTPSSTAAAAALASPYSSSGHHNDPSAFSIPQTPPSFDFSANAKWADSVLLEAARAFSDKDTARAQQILWTLNELSSPYGDTEQKLASYFLQALFNRMTGSGERCYRTMVTAAATEKTCSFESTRKTVLKFQEVSPWATFGHVAANGAILEAVDGEAKIHIVDISSTFCTQWPTLLEALATRSDDTPHLRLTTVVVANKFVNDQTASHRMMKEIGNRMEKFARLMGVPFKFNIIHHVGDLSEFDLNELDVKPDEVLAINCVGAMHGIASRGSPRDAVISSFRRLRPRIVTVVEEEADLVGEEEGGFDDEFLRGFGECLRWFRVCFESWEESFPRTSNERLMLERAAGRAIVDLVACEPSDSTERRETARKWSRRMRNSGFGAVGYSDEVADDVRALLRRYKEGVWSMVQCPDAAGIFLCWRDQPVVWASAWRPT

Key:
Assay in all cases: two-hybrid; IDD baits in pGBT9, GRAS preys in pGAD424, yeast strain PJ69-4A; serial dilutions spotted on -LW and -LWH, 3-amino-1,2,4-triazole added as needed; 3 days at 30 °C
[1] = molecular target: T1, AtIDD10 (JACKDAW) (Arabidopsis)
PpIDD2 (P. patens) = molecular target: PpIDD2 (P. patens)
PpIDD1 (P. patens) = molecular target: PpIDD1 (P. patens)
PpIDD4 (P. patens) = molecular target: PpIDD4 (P. patens)
PpIDD3 (P. patens) = molecular target: PpIDD3 (P. patens)

Molecule | binding [1] | binding (PpIDD2 (P. patens)) | binding (PpIDD1 (P. patens)) | binding (PpIDD4 (P. patens)) | binding (PpIDD3 (P. patens))
PpDELLAa (P. patens) | no binding |  |  |  | 
PpSHR2 (P. patens) | binds |  |  |  | 
PpDELLAb (P. patens) | no binding |  |  |  | 
B1 |  | no binding | no binding | no binding | no binding

These are yes or no findings as the source states them, for the method shown. For some of these results: Binding can be weak; no strength is given.
